The values below come from publication doi:10.1101/2025.07.02.662776.

Amino acid sequences for entries named in this document (tags omitted).
UniProt Q8K284: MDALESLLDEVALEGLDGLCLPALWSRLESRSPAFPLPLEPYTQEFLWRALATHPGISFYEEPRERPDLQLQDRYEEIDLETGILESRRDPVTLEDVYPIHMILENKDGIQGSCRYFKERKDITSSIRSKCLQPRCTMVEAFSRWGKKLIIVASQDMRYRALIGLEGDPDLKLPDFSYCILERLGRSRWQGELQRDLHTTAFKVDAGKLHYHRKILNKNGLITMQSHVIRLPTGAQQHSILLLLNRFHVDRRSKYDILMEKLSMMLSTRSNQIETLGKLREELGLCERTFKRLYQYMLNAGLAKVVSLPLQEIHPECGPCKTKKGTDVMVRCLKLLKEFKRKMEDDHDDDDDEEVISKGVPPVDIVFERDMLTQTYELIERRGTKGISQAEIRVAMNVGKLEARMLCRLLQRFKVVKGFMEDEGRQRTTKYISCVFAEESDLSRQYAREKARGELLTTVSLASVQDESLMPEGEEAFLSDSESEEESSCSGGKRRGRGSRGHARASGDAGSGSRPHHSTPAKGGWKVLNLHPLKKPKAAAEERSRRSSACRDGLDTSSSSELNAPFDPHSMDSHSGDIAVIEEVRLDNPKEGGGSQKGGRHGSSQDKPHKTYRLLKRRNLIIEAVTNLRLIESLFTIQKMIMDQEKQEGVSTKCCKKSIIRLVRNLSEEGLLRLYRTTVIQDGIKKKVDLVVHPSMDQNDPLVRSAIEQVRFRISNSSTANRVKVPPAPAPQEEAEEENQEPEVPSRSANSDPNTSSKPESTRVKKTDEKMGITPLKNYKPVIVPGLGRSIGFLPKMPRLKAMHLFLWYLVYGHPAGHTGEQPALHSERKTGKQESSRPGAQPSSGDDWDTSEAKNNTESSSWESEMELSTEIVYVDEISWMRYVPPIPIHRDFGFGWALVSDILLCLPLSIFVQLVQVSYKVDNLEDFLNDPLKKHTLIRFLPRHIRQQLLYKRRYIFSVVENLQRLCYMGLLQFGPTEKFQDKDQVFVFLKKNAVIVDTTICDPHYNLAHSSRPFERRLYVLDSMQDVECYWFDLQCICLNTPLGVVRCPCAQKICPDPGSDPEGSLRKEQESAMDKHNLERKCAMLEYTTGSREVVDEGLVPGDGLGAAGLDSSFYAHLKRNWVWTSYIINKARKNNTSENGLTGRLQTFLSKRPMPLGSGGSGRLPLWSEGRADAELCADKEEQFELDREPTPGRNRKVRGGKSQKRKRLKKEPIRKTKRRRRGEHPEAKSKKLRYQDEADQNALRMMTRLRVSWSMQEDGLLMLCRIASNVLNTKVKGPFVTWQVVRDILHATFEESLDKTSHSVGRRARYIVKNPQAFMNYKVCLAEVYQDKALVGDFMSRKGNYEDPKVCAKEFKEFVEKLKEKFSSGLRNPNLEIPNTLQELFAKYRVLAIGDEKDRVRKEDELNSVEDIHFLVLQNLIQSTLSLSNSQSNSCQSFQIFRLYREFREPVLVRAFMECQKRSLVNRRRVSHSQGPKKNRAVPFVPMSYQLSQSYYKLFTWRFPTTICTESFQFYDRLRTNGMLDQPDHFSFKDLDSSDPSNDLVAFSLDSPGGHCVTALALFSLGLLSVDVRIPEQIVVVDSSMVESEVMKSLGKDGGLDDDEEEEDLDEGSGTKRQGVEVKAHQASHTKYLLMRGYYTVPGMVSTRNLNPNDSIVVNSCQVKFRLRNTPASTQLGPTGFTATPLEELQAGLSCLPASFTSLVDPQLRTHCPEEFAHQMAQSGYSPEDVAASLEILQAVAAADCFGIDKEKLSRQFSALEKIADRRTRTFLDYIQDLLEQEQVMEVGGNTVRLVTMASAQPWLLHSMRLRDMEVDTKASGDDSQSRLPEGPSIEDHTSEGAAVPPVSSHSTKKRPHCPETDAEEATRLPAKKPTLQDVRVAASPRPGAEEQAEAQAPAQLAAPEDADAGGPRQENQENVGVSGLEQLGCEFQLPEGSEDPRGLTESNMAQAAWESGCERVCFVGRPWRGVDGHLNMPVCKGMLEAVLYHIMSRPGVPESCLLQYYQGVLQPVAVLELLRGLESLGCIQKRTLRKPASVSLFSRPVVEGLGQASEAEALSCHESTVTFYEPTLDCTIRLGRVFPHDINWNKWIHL
UniProt Q6PDQ2: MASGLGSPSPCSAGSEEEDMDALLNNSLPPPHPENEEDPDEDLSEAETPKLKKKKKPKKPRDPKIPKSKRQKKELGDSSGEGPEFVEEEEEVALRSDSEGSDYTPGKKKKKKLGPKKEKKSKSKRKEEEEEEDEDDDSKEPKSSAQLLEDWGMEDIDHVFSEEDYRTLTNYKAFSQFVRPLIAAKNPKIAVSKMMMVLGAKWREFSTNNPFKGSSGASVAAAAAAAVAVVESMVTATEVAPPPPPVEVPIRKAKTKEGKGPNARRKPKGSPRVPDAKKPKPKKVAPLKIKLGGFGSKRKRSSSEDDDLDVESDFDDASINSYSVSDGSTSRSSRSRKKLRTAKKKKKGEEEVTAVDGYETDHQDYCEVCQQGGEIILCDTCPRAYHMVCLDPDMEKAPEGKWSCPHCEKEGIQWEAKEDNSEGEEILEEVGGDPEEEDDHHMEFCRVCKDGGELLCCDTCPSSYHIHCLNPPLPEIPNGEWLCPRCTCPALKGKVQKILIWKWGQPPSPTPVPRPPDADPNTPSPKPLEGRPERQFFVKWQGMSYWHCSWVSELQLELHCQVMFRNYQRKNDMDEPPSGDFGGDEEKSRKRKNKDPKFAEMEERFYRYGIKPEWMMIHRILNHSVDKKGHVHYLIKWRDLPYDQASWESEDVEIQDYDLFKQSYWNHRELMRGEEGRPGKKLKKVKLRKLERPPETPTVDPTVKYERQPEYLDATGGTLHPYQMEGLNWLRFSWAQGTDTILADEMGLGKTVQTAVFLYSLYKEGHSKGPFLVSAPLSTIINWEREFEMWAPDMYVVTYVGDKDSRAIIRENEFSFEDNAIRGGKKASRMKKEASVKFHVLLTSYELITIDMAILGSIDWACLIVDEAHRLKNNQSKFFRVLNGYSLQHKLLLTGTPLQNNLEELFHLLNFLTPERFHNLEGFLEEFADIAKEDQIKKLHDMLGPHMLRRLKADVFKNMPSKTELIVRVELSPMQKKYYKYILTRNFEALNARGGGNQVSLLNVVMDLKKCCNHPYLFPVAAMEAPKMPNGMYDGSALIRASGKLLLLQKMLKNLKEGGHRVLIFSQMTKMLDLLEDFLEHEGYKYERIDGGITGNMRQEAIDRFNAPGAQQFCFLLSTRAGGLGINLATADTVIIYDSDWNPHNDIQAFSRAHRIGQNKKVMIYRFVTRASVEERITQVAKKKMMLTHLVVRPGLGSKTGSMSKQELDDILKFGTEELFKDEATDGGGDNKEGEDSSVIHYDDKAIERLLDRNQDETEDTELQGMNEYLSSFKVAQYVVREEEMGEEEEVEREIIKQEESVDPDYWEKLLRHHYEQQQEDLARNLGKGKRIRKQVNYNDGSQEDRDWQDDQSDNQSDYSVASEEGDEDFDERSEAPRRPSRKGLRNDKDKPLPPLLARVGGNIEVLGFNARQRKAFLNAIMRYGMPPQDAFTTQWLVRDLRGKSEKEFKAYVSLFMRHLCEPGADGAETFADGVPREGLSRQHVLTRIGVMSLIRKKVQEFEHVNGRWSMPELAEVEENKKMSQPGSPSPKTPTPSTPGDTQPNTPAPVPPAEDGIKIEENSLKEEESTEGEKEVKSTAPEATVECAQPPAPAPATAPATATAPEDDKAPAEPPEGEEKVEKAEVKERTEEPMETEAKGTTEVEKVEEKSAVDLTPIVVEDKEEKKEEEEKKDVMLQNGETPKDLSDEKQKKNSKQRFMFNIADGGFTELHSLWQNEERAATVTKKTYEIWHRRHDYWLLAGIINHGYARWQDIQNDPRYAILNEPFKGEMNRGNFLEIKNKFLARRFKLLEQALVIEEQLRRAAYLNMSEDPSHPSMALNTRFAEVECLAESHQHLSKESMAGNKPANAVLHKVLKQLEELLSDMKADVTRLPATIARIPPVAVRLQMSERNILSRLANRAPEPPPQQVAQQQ
UniProt P23198: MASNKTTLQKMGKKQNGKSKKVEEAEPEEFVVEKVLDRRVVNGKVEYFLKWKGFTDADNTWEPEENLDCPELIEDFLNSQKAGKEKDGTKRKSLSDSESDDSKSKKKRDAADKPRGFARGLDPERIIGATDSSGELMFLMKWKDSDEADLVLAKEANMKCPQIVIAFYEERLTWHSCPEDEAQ

These are yes or no findings as the source states them, for the method shown. Binding seen in cells or lysates may run through a third protein. A yes stands for co-enrichment or nearness to the bait. Other partners may have been found.

The experiment concerns the target GTF3C1, endogenously tagged, in mouse embryonic stem cells (mouse (endogenous in mESC)) (UniProt Q8K284). Kind of experiment: affinity purification with mass spectrometry.

For the molecule “CHD4, endogenous, in mouse embryonic stem cells (from UniProt Q6PDQ2 1-1915)”, the binding result was “binds”.
Take “CBX3 (HP1γ), endogenous, in mouse embryonic stem cells (from UniProt P23198 1-183)”: the binding entry is given as “binds”.

B1: ADNP, endogenous, in mouse embryonic stem cells (protein, UniProt Q9Z103 1-1108)
chain: MFQLPVNNLGSLRKARKTVKKILSDIGLEYCKEHIEDFKQFEPNDFYLKNTTWEDVGLWDPSLTKNQDYRTKPFCCSACPFSSKFFSAYKSHFRNVHSEDFENRILLNCPYCTFNADKKTLETHIKIFHAPNSSAPSSSLSTFKDKNKNDGLKPKQADNVEQAVYYCKKCTYRDPLYEIVRKHIYREHFQHVAAPYIAKAGEKSLNGAVSLGTNAREECNIHCKRCLFMPKSYEALVQHVIEDHERIGYQVTAMIGHTNVVVPRAKPLMLIAPKPQDKKGMGLPPRISSLASGNVRSLPSQQMVNRLSIPKPNLNSTGVNMMSNVHLQQNNYGVKSVGQSYGVGQSVRLGLGGNAPVSIPQQSQSVKQLLPSGNGRSFGLGAEQRPPAAARYSLQTANTSLPPGQVKSPSVSQSQASRVLGQSSSKPPPAATGPPPSNHCATQKWKICTICNELFPENVYSVHFEKEHKAEKVPAVANYIMKIHNFTSKCLYCNRYLPTDTLLNHMLIHGLSCPYCRSTFNDVEKMAAHMRMVHIDEEMGPKTDSTLSFDLTLQQGSHTNIHLLVTTYNLRDAPAESVAYHAQNNAPVPPKPQPKVQEKADVPVKSSPQAAVPYKKDVGKTLCPLCFSILKGPISDALAHHLRERHQVIQTVHPVEKKLTYKCIHCLGVYTSNMTASTITLHLVHCRGVGKTQNGQDKTNAPSRLNQSPGLAPVKRTYEQMEFPLLKKRKLEEDADSPSCFEEKPEEPVVLALDPKGHEDDSYEARKSFLTKYFNKQPYPTRREIEKLAASLWLWKSDIASHFSNKRKKCVRDCEKYKPGVLLGFNMKELNKVKHEMDFDAEWLFENHDEKDSRVNASKTVDKKHNLGKEDDSFSDSFEHLEEESNGSGSPFDPVFEVEPKIPSDNLEEPVPKVIPEGALESEKLDQKEEEEEEEEEDGSKYETIHLTEEPAKLMHDASDSEVDQDDVVEWKDGASPSESGPGSQQISDFEDNTCEMKPGTWSDESSQSEDARSSKPAAKKKATVQDDTEQLKWKNSSYGKVEGFWSKDQSQWENASENAERLPNPQIEWQNSTIDSEDGEQFDSMTDGVADPMHGSLTGVKLSSQQA
For B1, the binding result was “binds”.
